Laboratory results reported in the supplement of paper PMC10849652.
This is one part of the list.

Sequences of proteins named here, by UniProt entry; tags and fusion partners are left off. A change or cut given only in a name is not applied to a line headed by its entry.
UniProt Q13439: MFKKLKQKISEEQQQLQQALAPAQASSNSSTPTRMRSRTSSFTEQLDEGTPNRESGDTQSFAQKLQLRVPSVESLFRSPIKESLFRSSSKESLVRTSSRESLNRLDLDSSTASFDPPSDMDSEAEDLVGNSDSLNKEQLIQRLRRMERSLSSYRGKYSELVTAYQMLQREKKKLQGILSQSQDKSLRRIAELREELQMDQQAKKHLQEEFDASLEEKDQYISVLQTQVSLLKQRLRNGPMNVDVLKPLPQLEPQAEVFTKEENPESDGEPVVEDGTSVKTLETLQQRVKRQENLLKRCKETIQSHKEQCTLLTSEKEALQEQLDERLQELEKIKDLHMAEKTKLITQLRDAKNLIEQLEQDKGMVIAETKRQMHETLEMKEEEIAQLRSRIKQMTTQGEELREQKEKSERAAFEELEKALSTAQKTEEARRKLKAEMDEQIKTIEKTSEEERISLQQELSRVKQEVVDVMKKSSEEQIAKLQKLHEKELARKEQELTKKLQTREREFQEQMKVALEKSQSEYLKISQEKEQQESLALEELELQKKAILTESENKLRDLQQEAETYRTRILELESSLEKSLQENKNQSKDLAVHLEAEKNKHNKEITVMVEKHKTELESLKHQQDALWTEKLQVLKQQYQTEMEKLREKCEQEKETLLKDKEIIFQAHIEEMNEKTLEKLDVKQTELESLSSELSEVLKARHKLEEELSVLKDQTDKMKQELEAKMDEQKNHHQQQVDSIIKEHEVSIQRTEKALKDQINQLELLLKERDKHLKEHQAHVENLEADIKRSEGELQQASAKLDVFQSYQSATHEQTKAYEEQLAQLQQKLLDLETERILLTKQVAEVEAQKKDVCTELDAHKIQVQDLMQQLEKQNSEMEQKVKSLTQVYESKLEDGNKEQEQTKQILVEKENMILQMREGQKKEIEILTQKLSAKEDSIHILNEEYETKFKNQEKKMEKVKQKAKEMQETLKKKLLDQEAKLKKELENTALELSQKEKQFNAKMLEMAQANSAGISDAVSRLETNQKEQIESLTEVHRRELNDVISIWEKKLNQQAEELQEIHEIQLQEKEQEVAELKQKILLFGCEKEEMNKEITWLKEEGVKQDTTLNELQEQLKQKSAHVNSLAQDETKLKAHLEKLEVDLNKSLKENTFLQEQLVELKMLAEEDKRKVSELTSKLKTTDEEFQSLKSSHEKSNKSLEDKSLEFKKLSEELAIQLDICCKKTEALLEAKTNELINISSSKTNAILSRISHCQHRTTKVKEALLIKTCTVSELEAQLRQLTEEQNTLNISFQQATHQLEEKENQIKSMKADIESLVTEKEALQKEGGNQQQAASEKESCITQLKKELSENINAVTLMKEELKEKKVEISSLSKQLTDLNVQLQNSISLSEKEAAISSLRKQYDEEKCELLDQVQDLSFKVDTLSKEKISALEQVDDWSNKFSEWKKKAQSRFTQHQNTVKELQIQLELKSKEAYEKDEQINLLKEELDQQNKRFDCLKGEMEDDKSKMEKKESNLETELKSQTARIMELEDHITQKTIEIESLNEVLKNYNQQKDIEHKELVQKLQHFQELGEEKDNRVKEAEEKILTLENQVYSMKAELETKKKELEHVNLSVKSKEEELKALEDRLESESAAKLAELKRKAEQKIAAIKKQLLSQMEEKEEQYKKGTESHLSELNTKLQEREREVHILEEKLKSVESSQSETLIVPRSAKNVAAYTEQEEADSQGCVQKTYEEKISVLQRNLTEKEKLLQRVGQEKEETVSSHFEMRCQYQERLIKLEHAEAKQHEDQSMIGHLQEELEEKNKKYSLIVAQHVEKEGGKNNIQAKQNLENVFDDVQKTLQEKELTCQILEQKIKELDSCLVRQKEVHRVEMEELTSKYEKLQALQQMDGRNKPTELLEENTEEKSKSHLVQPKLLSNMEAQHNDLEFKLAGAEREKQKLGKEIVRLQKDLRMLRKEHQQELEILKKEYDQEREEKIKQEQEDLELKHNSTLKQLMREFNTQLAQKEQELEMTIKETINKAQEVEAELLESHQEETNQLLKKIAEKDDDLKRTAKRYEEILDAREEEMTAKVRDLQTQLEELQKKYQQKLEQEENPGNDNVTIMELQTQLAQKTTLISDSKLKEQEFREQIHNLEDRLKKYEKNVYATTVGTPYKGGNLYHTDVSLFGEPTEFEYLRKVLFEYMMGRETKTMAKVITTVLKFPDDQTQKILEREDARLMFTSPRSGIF
UniProt Q9NVN8: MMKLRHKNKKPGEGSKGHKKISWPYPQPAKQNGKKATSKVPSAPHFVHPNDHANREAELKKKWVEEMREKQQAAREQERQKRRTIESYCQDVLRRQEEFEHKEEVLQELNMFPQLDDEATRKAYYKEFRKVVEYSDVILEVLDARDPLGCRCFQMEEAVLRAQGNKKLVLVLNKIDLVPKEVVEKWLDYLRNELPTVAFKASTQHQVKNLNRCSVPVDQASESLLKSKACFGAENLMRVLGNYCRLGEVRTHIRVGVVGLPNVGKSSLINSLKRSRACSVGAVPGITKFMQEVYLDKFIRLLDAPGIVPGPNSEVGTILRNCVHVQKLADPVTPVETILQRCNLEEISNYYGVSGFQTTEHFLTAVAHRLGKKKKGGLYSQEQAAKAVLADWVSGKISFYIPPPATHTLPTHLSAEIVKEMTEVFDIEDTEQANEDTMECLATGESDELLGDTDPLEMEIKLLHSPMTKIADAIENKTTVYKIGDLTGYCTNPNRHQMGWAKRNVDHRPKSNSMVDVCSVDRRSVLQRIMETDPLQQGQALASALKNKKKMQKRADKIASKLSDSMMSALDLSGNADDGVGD
UniProt O15228: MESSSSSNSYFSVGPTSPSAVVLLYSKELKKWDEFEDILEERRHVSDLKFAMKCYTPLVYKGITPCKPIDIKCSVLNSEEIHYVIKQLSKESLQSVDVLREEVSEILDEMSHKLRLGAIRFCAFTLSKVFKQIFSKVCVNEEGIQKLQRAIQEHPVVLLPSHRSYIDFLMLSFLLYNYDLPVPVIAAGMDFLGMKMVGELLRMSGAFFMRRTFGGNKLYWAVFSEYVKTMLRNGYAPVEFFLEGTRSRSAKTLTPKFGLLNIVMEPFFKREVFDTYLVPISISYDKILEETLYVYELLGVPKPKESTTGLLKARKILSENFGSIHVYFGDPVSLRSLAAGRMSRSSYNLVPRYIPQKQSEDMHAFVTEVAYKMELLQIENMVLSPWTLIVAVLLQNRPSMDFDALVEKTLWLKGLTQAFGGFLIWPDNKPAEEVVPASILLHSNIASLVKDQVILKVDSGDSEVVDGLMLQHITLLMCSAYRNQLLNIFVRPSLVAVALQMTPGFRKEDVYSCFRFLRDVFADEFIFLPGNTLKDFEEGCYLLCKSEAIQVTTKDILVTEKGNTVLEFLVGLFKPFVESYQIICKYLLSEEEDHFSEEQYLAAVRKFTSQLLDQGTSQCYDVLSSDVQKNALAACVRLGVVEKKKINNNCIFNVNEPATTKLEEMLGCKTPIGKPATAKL
UniProt Q96I76: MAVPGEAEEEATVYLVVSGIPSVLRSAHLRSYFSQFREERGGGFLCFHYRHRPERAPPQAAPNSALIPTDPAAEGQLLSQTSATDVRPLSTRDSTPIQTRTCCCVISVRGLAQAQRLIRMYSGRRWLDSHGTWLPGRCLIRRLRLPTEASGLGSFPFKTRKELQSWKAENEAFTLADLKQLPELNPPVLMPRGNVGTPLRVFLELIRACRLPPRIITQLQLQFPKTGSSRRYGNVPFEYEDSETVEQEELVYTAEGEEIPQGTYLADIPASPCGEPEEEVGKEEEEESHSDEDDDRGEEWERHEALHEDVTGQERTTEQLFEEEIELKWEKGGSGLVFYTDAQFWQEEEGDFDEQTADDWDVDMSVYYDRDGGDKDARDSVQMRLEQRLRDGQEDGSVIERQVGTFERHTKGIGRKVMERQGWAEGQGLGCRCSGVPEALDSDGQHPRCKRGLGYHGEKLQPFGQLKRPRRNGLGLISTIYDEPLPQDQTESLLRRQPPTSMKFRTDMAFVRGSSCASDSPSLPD
UniProt Q14956: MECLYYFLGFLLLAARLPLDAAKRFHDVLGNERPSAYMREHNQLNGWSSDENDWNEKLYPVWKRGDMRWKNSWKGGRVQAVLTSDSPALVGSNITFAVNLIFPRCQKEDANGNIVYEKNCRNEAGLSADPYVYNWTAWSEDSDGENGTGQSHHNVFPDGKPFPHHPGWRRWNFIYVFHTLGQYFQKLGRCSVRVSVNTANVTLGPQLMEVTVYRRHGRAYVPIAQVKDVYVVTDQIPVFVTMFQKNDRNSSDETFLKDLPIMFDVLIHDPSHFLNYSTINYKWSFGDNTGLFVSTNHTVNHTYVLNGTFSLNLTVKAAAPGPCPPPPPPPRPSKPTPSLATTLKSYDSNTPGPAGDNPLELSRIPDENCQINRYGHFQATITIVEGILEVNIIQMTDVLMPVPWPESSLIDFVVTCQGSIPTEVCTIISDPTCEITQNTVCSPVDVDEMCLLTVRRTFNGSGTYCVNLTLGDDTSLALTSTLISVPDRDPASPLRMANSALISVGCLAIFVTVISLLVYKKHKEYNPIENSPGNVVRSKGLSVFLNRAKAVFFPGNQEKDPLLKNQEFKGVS
UniProt Q9HCL2: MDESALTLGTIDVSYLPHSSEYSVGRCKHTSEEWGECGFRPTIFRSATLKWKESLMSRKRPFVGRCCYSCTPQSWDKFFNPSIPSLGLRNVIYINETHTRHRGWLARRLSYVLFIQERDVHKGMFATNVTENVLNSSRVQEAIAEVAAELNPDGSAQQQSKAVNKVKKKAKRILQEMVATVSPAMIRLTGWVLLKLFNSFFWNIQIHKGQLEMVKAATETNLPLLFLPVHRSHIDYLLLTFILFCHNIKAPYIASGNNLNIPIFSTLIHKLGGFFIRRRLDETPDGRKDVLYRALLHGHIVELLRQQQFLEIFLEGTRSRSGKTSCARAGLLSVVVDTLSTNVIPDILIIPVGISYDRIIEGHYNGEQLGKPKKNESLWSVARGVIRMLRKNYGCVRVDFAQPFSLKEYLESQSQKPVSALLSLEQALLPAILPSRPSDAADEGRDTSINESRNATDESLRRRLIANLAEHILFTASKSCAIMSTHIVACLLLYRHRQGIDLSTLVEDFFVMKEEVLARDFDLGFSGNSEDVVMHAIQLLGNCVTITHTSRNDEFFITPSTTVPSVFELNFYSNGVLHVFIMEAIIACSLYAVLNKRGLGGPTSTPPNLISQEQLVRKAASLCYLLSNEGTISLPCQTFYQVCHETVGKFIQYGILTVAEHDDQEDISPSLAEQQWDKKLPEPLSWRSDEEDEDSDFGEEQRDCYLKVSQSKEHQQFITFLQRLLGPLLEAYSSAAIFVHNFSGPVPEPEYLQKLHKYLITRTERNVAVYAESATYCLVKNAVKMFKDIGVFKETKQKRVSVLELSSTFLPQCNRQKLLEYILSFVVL
UniProt Q9Y692: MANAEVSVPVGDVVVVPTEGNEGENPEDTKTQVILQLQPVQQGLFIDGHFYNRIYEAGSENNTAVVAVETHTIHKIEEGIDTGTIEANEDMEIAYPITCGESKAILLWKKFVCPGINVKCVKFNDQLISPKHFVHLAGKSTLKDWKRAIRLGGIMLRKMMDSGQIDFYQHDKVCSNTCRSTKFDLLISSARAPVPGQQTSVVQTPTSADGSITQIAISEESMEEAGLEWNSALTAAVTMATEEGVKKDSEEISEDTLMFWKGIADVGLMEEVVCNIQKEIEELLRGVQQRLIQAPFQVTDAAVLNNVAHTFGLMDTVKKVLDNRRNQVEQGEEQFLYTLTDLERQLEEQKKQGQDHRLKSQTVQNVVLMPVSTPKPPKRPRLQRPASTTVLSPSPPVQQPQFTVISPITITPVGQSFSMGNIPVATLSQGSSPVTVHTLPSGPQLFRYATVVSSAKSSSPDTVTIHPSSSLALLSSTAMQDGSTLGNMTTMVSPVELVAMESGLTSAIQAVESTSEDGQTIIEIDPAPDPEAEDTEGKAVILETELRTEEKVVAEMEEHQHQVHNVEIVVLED
UniProt P35754: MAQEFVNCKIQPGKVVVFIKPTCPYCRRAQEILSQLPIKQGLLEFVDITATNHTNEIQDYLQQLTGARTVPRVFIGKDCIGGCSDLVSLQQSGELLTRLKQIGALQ
UniProt P16520, whole entry, looked up: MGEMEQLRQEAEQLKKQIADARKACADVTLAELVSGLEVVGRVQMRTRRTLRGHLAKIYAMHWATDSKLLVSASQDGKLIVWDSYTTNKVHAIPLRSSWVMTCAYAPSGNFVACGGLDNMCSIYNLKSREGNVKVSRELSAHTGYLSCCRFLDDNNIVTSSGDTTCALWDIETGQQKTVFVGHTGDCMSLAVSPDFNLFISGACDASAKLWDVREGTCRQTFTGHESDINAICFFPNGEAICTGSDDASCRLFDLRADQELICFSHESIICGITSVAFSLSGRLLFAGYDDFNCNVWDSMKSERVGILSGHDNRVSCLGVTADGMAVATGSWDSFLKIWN
UniProt Q9UBI6: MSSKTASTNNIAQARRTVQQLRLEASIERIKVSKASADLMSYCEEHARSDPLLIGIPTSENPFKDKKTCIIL

Legend:
Test in all cases: log2 fold change, soluble protein after heating vs DMSO (PISA); higher = thermal stabilisation; K562 lysate, 10 uM; active = over 0.2 and 3.5 SD of the protein, either way, in both replicates (recomputed)
erlotinib = compound: C#Cc1cccc(Nc2ncnc3cc(OCCOC)c(OCCOC)cc23)c1 [erlotinib]
Outline: (§1)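 K562 pellets were dounce-homogenised in PBS pH 7.4 containing 1 mM MgCl2, and the crude extract, at 1 mg/mL protein, was exposed to 10 μM compound for 30 min. Aliquots were heated for 3 min across 48°C-58°C, pooled, brought to 0.5% NP-40 at 4°C and spun at 21,000xg for 90 min, with the supernatant taken as soluble protein. TMTpro 16plex LC-MS/MS with equalised channel sums quantified that protein. Values are log-two fold changes in thermal stability relative to solvent controls, taken from duplicates.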

[1] = compound: C/C(=N\NC(=O)C1=CC(=CC=C1)S(=O)(=O)N2CCOCC2)/C3=C(C=CC(=C3)Cl)O
Outline: as §1

[2] = compound: C1=CC(=CC=C1C2=NC3=C(N2)C=C(C=C3)C(=O)N)OC4=CC=C(C=C4)Cl
Outline: as §1

[3] = compound: C1=CC2=C(C=CC(=C2)/C=C\3/C(=O)NC(=NCC4=CC=CS4)S3)N=C1
Outline: as §1

[4] = compound: C1=CC2=NC=CN=C2C=C1/C=C/3\C(=O)NC(=O)S3
Outline: as §1

[5] = compound: C1=CC=C(C=C1)C2=NC(=C(N2)C3=CC=NC=C3)C4=CC(=C(C=C4)Cl)O
Outline: as §1

[6] = compound: C1=CC=C2C(=C1)C3=NNC4=CC=CC(=C43)C2=O
Outline: as §1

[7] = compound: C1CCN(C1)C(=O)NC2=CC=CC(=C2)NC3=NC=C(C(=N3)NCCC4=CN=CN4)Br
Outline: as §1

[8] = compound: C1CN(CCC1(CC2=CC=C(C=C2)Cl)N)C3=NC=NC4=C3C=CN4
Outline: as §1

IRAK-1-4 Inhibitor I = compound: C1COCCN1CCN2C3=CC=CC=C3N=C2NC(=O)C4=CC(=CC=C4)[N+](=O)[O-] [IRAK-1-4 Inhibitor I]
Outline: as §1

Measured: log2 fold change

GID4 (UniProt Q8IVV7)
inactive: erlotinib -0.051 | [1] -0.002 | [2] 0.06 | [3] -0.014 | [4] -0.018 | [5] -0.014 | [6] -0.025 | [7] -0.029 | [8] 0.047 | IRAK-1-4 Inhibitor I 0.017

GOLGA4 (UniProt Q13439)
inactive: erlotinib -0.023 | [1] -0.02 | [2] -0.013 | [3] 0.117 | [4] -0.181 | [5] -0.001 | [6] -0.147 | [7] 0.103 | [8] -0.186 | IRAK-1-4 Inhibitor I 0.103

GNL3L (UniProt Q9NVN8)
inactive: erlotinib 0.001 | [1] 0.009 | [2] 0 | [3] 0.062 | [4] -0.132 | [5] 0.103 | [6] 0.006 | [7] -0.162 | [8] -0.035 | IRAK-1-4 Inhibitor I 0.016

GLDC (UniProt P23378)
inactive: [4] 0.088

GOLGB1 isoform 4 (UniProt Q14789)
inactive: [5] 0.022 | IRAK-1-4 Inhibitor I -0.086

GNAS isoform 3 (UniProt P63092)
inactive: erlotinib 0 | [2] 0.165

GNPAT (UniProt O15228)
inactive: erlotinib 0.026 | [1] -0.032 | [2] -0.08 | [3] 0.013 | [4] 0.033 | [5] -0.022 | [6] -0.055 | [7] -0.062 | [8] -0.047 | IRAK-1-4 Inhibitor I 0.068

GPATCH2L (UniProt Q9NWQ4)
inactive: [5] -0.066 | [7] -0.202 | [8] 0.089 | IRAK-1-4 Inhibitor I -0.258

Taken from the entries so far (two entries):
GNAS isoform 3 (UniProt P63092)
inactive: erlotinib 0 | [2] 0.165

GNPAT (UniProt O15228)
inactive: erlotinib 0.026 | [1] -0.032 | [2] -0.08 | [3] 0.013 | [4] 0.033 | [5] -0.022 | [6] -0.055 | [7] -0.062 | [8] -0.047 | IRAK-1-4 Inhibitor I 0.068

More records

GHITM (UniProt Q9H3K2)
inactive: erlotinib 0.011 | [1] -0.064 | [2] -0.047 | [3] 0.02 | [4] 0.012 | [5] -0.004 | [6] -0.021 | [7] 0.005 | [8] 0.014 | IRAK-1-4 Inhibitor I 0.013

GLCE (UniProt O94923)
inactive: erlotinib 0.041 | [2] 0.006 | [4] -0.041 | [5] -0.002 | [7] -0.156 | [8] 0.043 | IRAK-1-4 Inhibitor I -0.012

GPSM2 (UniProt P81274)
inactive: erlotinib 0.101 | [1] 0.055 | [2] -0.051 | [3] -0.306 | [4] -0.155 | [6] -0.055 | [7] -0.028 | [8] 0.155

GPATCH3 (UniProt Q96I76)
inactive: erlotinib -0.006 | [2] 0.002 | [5] 0.099 | IRAK-1-4 Inhibitor I 0.163

GINM1 (UniProt Q9NU53)
inactive: erlotinib 0.218 | [2] -0.013

GNA12 (UniProt Q03113)
inactive: [1] -0.357 | [3] -0.226 | [4] -0.003 | [5] 0.071 | [6] -0.187 | [7] -0.04 | [8] -0.144 | IRAK-1-4 Inhibitor I 0.038

GLMP (UniProt Q8WWB7)
inactive: erlotinib 0.01 | [1] 0.04 | [2] 0.013 | [3] -0.027 | [5] 0.026 | [6] -0.141 | [7] 0.084 | [8] 0.043 | IRAK-1-4 Inhibitor I -0.028

GOLGA5 (UniProt Q8TBA6)
inactive: erlotinib 0.008 | [1] -0.004 | [2] 0.046 | [3] 0.013 | [4] -0.005 | [5] -0.031 | [6] -0.104 | [7] -0.022 | [8] -0.027 | IRAK-1-4 Inhibitor I 0.015

GNPTG (UniProt Q9UJJ9)
inactive: erlotinib -0.056 | [1] 0.188 | [2] 0.158 | [3] 0.047 | [4] -0.034 | [5] 0.014 | [6] 0.007 | [7] 0.015 | [8] 0.106 | IRAK-1-4 Inhibitor I -0.084

GPNMB (UniProt Q14956)
inactive: [4] -0.141

GPAM (UniProt Q9HCL2)
inactive: [5] -0.09 | IRAK-1-4 Inhibitor I 0.017

GMEB1 isoform 2 (UniProt Q9Y692)
inactive: [5] -0.484 | IRAK-1-4 Inhibitor I -0.116

GNB4 (UniProt Q9HAV0)
inactive: erlotinib -0.017 | [2] 0.067 | [4] -0.049 | [5] -0.057 | [7] -0.035 | [8] -0.005 | IRAK-1-4 Inhibitor I -0.024

GIPC3 (UniProt Q8TF64)
inactive: erlotinib -0.049 | [2] 0.091 | [4] -0.025 | [5] 0.063 | [7] 0.008 | [8] 0.139 | IRAK-1-4 Inhibitor I 0.101

GOSR1 (UniProt E9PCW1)
inactive: [4] -0.19 | [5] -0.19 | IRAK-1-4 Inhibitor I -0.038

GLRX (UniProt P35754)
inactive: [1] 0.034 | [3] -0.061 | [6] -0.105 | [7] 0.021 | [8] -0.025

GNB3 (UniProt P16520)
inactive: erlotinib 0.007 | [1] -0.043 | [2] -0.001 | [3] -0.037 | [4] -0.038 | [5] -0.036 | [6] -0.013 | [7] -0.052 | [8] -0.024 | IRAK-1-4 Inhibitor I 0.057

GNG12 (UniProt Q9UBI6)
inactive: [1] -0.082 | [3] 0.096 | [6] 0.1

GNAS isoform 2 (UniProt Q5JWF2)
inactive: [4] 0.009

GORASP1 (UniProt Q9BQQ3)
inactive: erlotinib -0.081 | [1] -0.026 | [2] -0.019 | [3] 0.05 | [5] 0.01 | [6] -0.057 | [7] 0.049 | [8] 0.018 | IRAK-1-4 Inhibitor I -0.023

GNPTAB (UniProt Q3T906)
inactive: erlotinib -0.01 | [2] 0.036 | [4] -0.18 | [5] -0.006 | IRAK-1-4 Inhibitor I -0.064

GNAI2 (UniProt P04899)
inactive: erlotinib 0.014 | [1] 0.025 | [2] -0.031 | [3] -0.006 | [4] -0.006 | [5] 0.008 | [6] 0.031 | [7] -0.021 | [8] 0.044 | IRAK-1-4 Inhibitor I 0.001

GOLGA8R (UniProt I6L899)
inactive: erlotinib 0.061 | [2] 0.143 | [4] -0.039 | [5] 0.078 | IRAK-1-4 Inhibitor I 0.113

GNB1L (UniProt Q9BYB4)
inactive: erlotinib -0.03 | [1] 0.013 | [2] 0.014 | [3] -0.007 | [4] -0.003 | [5] -0.028 | [6] 0.013 | [7] -0.04 | [8] 0.038 | IRAK-1-4 Inhibitor I 0.009
